This is one part of the list.
Experiments:
[1] = target: Neu5Gc(a2-8)Neu5Gc(a2-6)Gal(b1-4)GlcNAc; test: glycan array binding signal (z-score within array); higher = stronger binding; settings: glycan notation: IUPAC condensed, linker removed
Summary of the method: (§1)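 The binding signal is a Z-score computed within each array and averaged over linkers. Arrays of the same protein sequence at different concentrations or buffers were also averaged together. Data originate from 3228 arrays in the Consortium for Functional Glycomics database, kept only where the protein sequence was available.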

[2] = target: Neu5Gc(b2-6)Gal(b1-4)GlcNAc; test: as above; settings: glycan notation: IUPAC condensed, linker removed
Summary of the method: as §1

B1: Clec18Av1 (Homo sapiens), A5D8T8 (protein)
chain: MLHPETSPGRGHLLAVLLALLGTAWAEVWPPQLQEQAPMAGALNRKESFLLLSLHNRLRSWVQPPAADMRRLDWSDSLAQLAQARAALCGTPTPSLASGLWRTLQVGWNMQLLPAGLVSFVEVVSLWFAEGQRYSHAAGECARNATCTHYTQLVWATSSQLGCGRHLCSAGQAAIEAFVCAYSPRGNWEVNGKTIVPYKKGAWCSLCTASVSGCFKAWDHAGGLCEVPRNPCRMSCQNHGRLNISTCHCHCPPGYTGRYCQVRCSLQCVHGRFREEECSCVCDIGYGGAQCATKVHFPFHTCDLRIDGDCFMVSSEADTYYRARMKCQRKGGVLAQIKSQKVQDILAFYLGRLETTNEVIDSDFETRNFWIGLTYKTAKDSFRWATGEHQAFTSFAFGQPDNHGFGNCVELQASAAFNWNDQRCKTRNRYICQFAQEHISRWGPGS
glycan array binding signal (z-score) [1]: 0.057
glycan array binding signal (z-score) [2]: -0.594
